From paper PMC3894987
These are yes or no findings as the source states them, for the method shown. In cells and extracts the contact can be indirect. Some entries that bind do so weakly or less than the wild type. For part of these data: Tags and fused reporters may be left off the sequences shown.

Sequences of proteins named here, by UniProt entry; tags and fusion partners are left off.
UniProt Q53GL0: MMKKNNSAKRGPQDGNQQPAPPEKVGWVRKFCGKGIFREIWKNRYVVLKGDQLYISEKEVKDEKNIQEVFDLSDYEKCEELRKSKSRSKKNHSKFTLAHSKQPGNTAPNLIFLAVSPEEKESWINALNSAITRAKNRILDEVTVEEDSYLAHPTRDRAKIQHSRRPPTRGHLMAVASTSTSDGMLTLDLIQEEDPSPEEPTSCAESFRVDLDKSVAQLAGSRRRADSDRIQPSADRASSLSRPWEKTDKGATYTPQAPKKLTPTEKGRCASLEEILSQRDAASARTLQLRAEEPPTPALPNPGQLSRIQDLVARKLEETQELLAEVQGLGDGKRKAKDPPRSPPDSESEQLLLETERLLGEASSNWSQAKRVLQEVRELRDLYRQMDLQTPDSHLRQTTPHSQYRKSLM
UniProt Q04759: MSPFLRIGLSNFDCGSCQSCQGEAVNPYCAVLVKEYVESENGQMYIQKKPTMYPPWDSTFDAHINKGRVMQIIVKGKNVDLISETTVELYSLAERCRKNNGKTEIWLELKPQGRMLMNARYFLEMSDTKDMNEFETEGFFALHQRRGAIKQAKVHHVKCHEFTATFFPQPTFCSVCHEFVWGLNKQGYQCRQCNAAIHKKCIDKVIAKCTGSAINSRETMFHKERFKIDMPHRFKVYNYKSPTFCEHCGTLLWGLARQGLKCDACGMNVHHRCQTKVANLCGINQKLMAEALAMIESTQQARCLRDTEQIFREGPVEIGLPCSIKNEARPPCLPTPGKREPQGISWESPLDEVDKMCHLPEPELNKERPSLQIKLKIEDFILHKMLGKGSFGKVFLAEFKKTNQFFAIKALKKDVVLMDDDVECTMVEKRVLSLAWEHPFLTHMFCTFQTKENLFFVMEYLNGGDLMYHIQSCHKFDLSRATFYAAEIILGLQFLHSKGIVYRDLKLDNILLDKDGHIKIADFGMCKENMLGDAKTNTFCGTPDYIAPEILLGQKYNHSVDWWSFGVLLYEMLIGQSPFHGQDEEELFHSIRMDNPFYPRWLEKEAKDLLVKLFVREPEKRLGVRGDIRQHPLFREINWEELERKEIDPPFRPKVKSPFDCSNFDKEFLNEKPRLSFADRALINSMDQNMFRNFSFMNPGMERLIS

Experiments:
[1] = molecular target: casein kinase-2 interacting protein-1 (CKIP-1), untagged, expressed in HEK293T (human) (UniProt Q53GL0); assay: co-IP; HEK293T co-transfected; lysis in 20 mM Tris-HCl pH 7.5, 250 mM NaCl, 1% NP-40; immunoprecipitated by anti-CKIP-1 or control antibody on Protein A beads for 6 hr; Western blot
[2] = molecular target: T1, Myc-CARMA1 (wild type), expressed in HEK293T (UniProt Q9BXL7); assay: co-IP; HEK293T co-transfected; lysis in 20 mM Tris-HCl pH 7.5, 250 mM NaCl, 1% NP-40; immunoprecipitated by anti-Myc antibody on Protein A beads for 6 hr; Western blot; with or without co-transfected CKIP-1 or PKCθ
T1 sequence: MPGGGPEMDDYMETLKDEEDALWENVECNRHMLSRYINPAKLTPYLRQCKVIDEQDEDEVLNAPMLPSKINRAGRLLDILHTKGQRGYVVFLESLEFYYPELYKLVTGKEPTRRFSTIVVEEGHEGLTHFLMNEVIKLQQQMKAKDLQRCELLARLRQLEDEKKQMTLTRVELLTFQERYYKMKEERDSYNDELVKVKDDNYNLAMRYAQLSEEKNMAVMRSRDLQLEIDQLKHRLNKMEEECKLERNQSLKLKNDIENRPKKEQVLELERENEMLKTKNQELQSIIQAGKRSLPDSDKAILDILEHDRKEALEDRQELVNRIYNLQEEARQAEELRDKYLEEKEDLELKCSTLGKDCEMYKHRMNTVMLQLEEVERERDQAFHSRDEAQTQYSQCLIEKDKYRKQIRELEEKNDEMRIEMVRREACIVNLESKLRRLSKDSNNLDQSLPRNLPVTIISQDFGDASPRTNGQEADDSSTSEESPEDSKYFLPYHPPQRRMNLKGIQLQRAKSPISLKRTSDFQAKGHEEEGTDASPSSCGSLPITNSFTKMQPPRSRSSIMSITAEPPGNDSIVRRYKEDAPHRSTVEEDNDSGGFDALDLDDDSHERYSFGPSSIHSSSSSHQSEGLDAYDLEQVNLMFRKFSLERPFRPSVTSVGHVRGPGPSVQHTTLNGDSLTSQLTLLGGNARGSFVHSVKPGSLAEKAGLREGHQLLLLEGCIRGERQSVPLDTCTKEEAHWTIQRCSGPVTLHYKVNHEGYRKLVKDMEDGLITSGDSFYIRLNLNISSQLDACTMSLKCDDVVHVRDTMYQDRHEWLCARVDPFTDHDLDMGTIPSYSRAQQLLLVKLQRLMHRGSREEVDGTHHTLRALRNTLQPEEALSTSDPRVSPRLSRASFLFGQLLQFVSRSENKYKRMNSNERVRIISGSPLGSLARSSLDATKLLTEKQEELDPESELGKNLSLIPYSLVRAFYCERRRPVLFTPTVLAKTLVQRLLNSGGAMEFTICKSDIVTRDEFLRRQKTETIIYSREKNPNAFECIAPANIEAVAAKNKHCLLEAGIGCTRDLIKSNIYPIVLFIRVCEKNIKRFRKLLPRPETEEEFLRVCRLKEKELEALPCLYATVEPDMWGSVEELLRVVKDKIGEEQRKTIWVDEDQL

[3] = molecular target: T2, FLAG-CARMA1, expressed in HEK293T (UniProt Q9BXL7); assay: co-IP; HEK293T co-transfected; lysis in 20 mM Tris-HCl pH 7.5, 250 mM NaCl, 1% NP-40; immunoprecipitated by anti-FLAG antibody on Protein A beads for 6 hr; Western blot; with CKIP-1, its truncated forms or empty vector
T2 sequence: T1 sequence

PKCθ WT, expressed in HEK293T (from UniProt Q04759 1-706) (enzyme)
binding [1]: no binding
binding [2]: binds
binding [3]: binds
